The values below come from the supplement of paper PMC10849652.

Protein sequences, listed by entry. Tags and fused reporters are not part of them. Lines headed by an entry give the natural chain unless they say otherwise; changes in a name come on top.
UniProt Q96T83: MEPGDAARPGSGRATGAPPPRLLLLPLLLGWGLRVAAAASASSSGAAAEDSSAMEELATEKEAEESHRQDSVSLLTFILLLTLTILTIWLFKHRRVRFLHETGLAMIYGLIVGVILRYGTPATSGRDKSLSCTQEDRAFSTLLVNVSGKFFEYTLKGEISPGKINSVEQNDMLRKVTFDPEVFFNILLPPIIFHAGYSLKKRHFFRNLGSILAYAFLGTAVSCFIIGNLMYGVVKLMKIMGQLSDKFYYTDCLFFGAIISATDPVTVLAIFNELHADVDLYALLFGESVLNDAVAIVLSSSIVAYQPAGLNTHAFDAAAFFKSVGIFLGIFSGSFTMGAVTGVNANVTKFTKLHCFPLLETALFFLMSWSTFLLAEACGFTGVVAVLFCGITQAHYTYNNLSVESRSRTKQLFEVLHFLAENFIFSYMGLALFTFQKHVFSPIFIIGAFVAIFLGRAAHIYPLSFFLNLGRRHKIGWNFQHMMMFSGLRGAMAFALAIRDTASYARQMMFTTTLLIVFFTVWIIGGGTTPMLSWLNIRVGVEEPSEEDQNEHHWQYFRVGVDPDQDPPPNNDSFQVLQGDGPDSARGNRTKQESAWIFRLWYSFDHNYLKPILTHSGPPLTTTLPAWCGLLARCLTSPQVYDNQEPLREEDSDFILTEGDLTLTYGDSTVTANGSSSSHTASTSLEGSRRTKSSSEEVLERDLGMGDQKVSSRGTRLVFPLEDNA
UniProt Q13433: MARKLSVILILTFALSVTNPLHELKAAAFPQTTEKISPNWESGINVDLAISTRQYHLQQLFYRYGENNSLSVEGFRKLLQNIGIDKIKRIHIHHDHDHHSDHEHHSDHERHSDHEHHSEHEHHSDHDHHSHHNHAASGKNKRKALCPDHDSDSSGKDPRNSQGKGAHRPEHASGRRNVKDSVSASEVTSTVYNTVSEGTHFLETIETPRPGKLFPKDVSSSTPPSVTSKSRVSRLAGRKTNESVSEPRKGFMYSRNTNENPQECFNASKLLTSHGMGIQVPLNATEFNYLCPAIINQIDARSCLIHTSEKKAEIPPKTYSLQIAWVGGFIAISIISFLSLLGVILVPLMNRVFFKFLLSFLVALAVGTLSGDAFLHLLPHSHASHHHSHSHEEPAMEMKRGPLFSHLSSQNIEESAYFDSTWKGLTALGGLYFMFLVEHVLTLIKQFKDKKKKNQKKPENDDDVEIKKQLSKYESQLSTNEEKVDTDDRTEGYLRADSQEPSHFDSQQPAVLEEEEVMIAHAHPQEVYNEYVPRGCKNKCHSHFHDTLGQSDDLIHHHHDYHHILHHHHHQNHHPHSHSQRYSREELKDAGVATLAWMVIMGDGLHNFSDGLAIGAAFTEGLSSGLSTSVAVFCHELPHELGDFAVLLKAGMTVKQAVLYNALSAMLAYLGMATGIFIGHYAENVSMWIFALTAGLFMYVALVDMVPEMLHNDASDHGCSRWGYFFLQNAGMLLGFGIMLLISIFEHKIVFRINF
UniProt Q3KQZ1: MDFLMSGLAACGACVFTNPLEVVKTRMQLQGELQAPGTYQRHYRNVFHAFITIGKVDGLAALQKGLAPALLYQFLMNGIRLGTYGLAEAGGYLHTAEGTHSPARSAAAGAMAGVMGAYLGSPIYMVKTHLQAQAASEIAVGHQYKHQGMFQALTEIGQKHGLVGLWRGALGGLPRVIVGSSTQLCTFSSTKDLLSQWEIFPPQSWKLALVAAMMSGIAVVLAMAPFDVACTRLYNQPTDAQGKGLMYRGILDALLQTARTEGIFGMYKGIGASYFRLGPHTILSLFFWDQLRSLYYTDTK
UniProt P0CK96: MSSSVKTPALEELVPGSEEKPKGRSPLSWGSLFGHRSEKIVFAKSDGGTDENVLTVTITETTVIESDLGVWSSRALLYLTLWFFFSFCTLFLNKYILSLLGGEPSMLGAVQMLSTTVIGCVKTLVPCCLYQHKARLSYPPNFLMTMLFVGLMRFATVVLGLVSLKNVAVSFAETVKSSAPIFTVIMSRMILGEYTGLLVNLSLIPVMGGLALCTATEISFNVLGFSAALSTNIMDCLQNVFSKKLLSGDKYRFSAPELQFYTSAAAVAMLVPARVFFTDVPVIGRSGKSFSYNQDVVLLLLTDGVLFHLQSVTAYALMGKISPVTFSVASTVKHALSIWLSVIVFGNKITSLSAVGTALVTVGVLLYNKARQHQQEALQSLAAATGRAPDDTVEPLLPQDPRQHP
UniProt Q9Y2P4: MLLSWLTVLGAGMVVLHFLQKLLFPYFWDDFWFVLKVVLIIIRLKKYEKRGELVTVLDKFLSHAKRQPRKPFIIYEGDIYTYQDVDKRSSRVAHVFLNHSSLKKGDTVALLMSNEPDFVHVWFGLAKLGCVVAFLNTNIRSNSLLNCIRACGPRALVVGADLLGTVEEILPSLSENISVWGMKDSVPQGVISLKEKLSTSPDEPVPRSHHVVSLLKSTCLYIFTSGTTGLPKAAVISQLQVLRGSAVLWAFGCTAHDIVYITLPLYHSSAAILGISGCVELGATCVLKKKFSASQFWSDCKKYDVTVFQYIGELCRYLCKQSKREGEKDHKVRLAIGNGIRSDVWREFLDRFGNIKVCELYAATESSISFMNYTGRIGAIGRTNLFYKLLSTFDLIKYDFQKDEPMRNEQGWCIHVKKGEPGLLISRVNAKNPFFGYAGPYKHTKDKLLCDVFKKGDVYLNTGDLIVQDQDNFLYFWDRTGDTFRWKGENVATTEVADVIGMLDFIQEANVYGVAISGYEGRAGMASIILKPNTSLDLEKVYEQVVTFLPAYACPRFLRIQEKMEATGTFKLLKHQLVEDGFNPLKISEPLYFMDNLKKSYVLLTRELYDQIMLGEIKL
UniProt F5GZS6: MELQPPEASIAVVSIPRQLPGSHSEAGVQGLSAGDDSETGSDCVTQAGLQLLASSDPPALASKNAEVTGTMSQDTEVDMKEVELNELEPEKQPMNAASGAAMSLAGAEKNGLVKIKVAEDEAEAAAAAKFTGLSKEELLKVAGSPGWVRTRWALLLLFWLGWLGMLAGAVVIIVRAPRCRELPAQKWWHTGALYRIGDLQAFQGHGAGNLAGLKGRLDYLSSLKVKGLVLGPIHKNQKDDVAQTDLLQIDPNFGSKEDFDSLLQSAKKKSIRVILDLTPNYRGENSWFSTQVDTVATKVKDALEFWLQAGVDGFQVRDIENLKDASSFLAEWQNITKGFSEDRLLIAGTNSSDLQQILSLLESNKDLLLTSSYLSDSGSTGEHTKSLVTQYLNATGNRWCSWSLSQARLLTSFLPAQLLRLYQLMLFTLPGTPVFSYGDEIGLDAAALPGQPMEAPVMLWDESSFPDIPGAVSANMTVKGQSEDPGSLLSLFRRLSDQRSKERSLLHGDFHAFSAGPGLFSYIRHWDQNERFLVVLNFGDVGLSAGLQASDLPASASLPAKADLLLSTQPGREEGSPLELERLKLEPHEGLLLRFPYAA
UniProt Q6ZP29: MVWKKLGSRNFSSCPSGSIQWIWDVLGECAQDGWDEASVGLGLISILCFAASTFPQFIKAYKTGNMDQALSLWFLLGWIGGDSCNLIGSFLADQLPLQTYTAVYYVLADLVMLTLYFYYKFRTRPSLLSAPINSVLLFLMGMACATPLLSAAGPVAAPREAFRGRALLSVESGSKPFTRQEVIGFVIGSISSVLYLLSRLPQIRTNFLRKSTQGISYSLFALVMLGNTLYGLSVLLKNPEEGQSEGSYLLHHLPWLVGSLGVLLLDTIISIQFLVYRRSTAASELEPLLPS
UniProt Q9UGH3: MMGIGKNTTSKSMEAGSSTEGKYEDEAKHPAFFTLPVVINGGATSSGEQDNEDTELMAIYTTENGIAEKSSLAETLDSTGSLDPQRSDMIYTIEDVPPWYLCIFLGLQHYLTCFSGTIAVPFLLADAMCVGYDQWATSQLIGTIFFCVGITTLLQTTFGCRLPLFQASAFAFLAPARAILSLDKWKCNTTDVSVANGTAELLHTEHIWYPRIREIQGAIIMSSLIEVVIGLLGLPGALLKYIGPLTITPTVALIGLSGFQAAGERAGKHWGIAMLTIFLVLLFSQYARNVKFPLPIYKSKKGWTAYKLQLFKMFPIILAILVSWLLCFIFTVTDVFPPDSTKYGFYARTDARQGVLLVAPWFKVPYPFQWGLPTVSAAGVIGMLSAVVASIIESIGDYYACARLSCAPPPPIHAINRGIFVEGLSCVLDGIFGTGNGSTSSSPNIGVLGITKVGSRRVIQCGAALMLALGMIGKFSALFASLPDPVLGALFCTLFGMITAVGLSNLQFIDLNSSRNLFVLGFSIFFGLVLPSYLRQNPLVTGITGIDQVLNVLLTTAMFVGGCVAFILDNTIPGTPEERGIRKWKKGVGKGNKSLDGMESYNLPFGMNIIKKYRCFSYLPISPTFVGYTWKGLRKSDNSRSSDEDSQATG
UniProt Q0VAQ4: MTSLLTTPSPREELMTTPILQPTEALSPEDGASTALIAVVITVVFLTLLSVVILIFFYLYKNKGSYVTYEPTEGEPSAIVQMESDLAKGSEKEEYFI
UniProt Q96DW6: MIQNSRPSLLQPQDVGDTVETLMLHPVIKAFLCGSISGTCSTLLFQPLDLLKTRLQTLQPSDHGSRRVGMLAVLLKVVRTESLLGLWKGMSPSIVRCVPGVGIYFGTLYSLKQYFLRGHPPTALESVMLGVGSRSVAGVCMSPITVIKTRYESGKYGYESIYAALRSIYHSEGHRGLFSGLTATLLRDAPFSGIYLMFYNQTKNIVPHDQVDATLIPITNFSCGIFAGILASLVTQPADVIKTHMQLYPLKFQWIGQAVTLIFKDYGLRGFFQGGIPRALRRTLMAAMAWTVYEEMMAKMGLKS
UniProt Q9BZD2: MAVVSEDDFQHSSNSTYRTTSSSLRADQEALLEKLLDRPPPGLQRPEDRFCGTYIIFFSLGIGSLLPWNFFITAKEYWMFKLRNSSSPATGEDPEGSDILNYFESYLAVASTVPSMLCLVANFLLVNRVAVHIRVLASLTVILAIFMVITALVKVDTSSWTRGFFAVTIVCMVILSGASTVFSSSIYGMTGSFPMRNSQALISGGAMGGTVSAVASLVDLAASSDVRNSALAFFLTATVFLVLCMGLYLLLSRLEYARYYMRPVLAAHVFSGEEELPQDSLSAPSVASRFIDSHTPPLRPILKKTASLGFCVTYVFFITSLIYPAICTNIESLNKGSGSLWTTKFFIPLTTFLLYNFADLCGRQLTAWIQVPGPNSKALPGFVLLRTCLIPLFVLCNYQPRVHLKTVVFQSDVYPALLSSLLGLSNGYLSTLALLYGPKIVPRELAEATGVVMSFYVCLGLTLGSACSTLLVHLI
UniProt Q9NY26: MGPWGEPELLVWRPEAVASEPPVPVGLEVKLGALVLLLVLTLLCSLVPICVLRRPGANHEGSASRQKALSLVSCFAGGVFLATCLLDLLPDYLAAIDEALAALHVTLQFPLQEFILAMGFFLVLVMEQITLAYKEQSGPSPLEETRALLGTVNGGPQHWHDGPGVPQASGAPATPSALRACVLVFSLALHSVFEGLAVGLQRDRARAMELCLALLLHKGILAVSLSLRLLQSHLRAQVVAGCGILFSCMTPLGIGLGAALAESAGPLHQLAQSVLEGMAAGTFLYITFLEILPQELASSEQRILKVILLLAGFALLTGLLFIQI

The list shows a part of the results.

Common to all, as to assay: log2 fold change, soluble protein after heating vs DMSO (PISA); higher = thermal stabilisation; K562 lysate, 10 uM; active = over 0.2 and 3.5 SD of the protein, either way, in both replicates (recomputed)
Compound in experiment [1]: O=C1NC(=O)C(c2cnc3ccccn23)=C1c1cn2c3c(cc(F)cc13)CN(C(=O)N1CCCCC1)CC2
An outline of the steps:
(§1)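 Following dounce homogenisation of K562 pellets in PBS pH 7.4 with 1 mM MgCl2, crude extract at 1 mg/mL protein was incubated for 30 min with 10 μM compound. Aliquots were then heated for 3 min over 48°C-58°C and pooled, NP-40 was added to 0.5% at 4°C, and soluble protein was recovered as the supernatant at 21,000xg for 90 min. Channel-sum-equalised TMTpro 16plex LC-MS/MS quantified this protein. Each value, from duplicates, is a log-two fold change in thermal stability relative to solvent controls.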

Compound in a further experiment: O=C(CCCCCCC(=O)Nc1ccccc1)NO [vorinostat]
The procedure, abridged: as §1

Compound in another experiment: O=C(O)c1ccc2c(c1)nc(Nc1cccc(Cl)c1)c1ccncc12 [silmitasertib]
An outline of the steps:
as §1

Compound in another experiment: c1cn2cc(-c3ccc4cn[nH]c4c3)nc(Nc3ccc(N4CCOCC4)cc3)c2n1 [entospletinib]
The procedure, abridged:
as §1

Compound in experiment [2]: NCC(=O)Nc1ccc(-n2nc(C(F)(F)F)cc2-c2ccc3c(ccc4ccccc43)c2)cc1
The procedure, abridged: as §1

Turning to SLC9A7 (UniProt Q96T83), in experiment [1], the log2 fold change was inactive: 0.105.
With SLC39A6 (UniProt Q13433), the log2 fold change is inactive: 0.14 with vorinostat, inactive: -0.019 with silmitasertib and inactive: -0.009 in experiment [1].
For the target SLC25A35 (UniProt Q3KQZ1), the results for the log2 fold change (in experiment [1]; in the experiment with entospletinib) were inactive: 0.128 and inactive: 0.003, respectively.
Consider SLC35E2B (UniProt P0CK96), for which the log2 fold change is inactive: 0.146 in experiment [2] and inactive: -0.134 with entospletinib.
SLC27A6 (UniProt Q9Y2P4): the log2 fold change is inactive: -0.152 with vorinostat and inactive: 0.072 with silmitasertib.
For the target SLC3A2 (UniProt F5GZS6), the log2 fold change was inactive: -0.164 with vorinostat, inactive: -0.039 with silmitasertib and inactive: 0.086 with entospletinib.
For the target SLC66A1 (UniProt Q6ZP29), the log2 fold change with vorinostat was inactive: 0.021; with silmitasertib, inactive: -0.058; in experiment [1] it was inactive: -0.085.
With SLC23A2 (UniProt Q9UGH3), the log2 fold change with vorinostat is inactive: 0.052; in the experiment with silmitasertib, inactive: 0.039; in experiment [1] it was inactive: 0.068; with entospletinib, inactive: 0.018.
Take SMAGP (UniProt Q0VAQ4): the log2 fold change is inactive: 0.294 with vorinostat, inactive: -0.286 in the experiment with silmitasertib, inactive: 0.089 in experiment [1] and inactive: 0.017 with entospletinib.
Regarding SLC25A38 (UniProt Q96DW6), the log2 fold change in experiment [2] was inactive: -0.093; with vorinostat, inactive: 0.109; in the experiment with silmitasertib it was inactive: 0.129; in experiment [1], inactive: -0.019; with entospletinib, inactive: -0.075.
Take SLC29A3 (UniProt Q9BZD2): the log2 fold change with vorinostat is inactive: 0.068; in the experiment with silmitasertib, inactive: -0.054; in experiment [1] it was inactive: -0.03.
In the same order, the values of SLC39A1 (UniProt Q9NY26) are inactive: -0.399, inactive: -0.014 and inactive: 0.024.
Turning to SLX4 (UniProt Q8IY92), the values for the log2 fold change in the experiment with vorinostat and with silmitasertib were inactive: 0.08 and inactive: 0.038, respectively.
